Experimental data reported in article doi:10.1101/2020.07.27.223255.
No constants are given. Whether binding was seen depends on the method and setting. Some binding calls cover weakened binding; strength is not graded here. Tags and fused reporters may be left off the sequences shown.

Experiments:
Assay in all cases: pull-down
[1] = molecular target: T1, His6-MIT (Vps4 MIT domain) (S. cerevisiae) (UniProt P52917)
T1 sequence: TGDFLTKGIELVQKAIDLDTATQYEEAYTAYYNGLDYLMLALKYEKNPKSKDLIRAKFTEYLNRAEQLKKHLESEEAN

[2] = molecular target: T2, His6-MIT I18D (Vps4 MIT domain, MIM2-binding mutant) (S. cerevisiae) (UniProt P52917)
T2 sequence: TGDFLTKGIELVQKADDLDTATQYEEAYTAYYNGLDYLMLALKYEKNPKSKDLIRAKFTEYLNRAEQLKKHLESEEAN

[3] = molecular target: T3, His6-MIT L64D (Vps4 MIT domain, MIM1-binding mutant) (S. cerevisiae) (UniProt P52917)
T3 sequence: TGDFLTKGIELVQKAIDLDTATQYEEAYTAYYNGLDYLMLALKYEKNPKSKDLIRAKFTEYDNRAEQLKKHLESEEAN

Measured: binding

B1: Bro1 V domain (Bro1V, aa 370-709), GST tag removed (domain or fragment, UniProt P48582 370-709)
chain: DVYEKESIYSEEKATLLRKQVEETETANLEYSSFIEFTNLPRLLSDLEKQFSDGNIFSNTDTQGQLMRDQIQTWCKFIQTNEFRDIEEQMNKIVFKRKQILEILSALPNDQKENVTKLKSSLVAASNSDEKLFACVKPHIVEINLLNDNGKIWKKFDEFNRNTPPQPSLLDIDDTKNDKILELLKQVKGHAEDLRTLKEERSRNLSELRDEINNDDITKLLIINKGKSDVELKDLFEVELEKFEPLSTRIEATIYKQSSMIDDIKAKLDEIFHLSNFKDKSSGEEKFLEDRKNFFDKLQEAVKSFSIFASDLPKGIEFYDSLFNMSRDLAERVRVAKQTE
binds: all assays above
